Reference: PubChem BioAssay AID588590 (National Center for Advancing Translational Sciences (NCATS), 2011)
Screen size: about 390,000 compounds; about 4,000 (1%) were called active. Inconclusive results, whose numbers are uncertain, are shown with a selection of clear calls. The call rests on the fitted dose curve; in most records, active means well fitted inhibition curve with a large enough effect; inconclusive means small, poorly fitted or top-dose-only effect, or another doubt; inactive means no such curve, though single readings can be large or run the other way. A potency beside an inconclusive call is a rough fit, not a confirmed value.

Chains of the proteins cited; added tags and fusions are not shown. Lines headed by an entry give the natural chain unless they say otherwise; changes in a name come on top.
UniProt Q9UNA4: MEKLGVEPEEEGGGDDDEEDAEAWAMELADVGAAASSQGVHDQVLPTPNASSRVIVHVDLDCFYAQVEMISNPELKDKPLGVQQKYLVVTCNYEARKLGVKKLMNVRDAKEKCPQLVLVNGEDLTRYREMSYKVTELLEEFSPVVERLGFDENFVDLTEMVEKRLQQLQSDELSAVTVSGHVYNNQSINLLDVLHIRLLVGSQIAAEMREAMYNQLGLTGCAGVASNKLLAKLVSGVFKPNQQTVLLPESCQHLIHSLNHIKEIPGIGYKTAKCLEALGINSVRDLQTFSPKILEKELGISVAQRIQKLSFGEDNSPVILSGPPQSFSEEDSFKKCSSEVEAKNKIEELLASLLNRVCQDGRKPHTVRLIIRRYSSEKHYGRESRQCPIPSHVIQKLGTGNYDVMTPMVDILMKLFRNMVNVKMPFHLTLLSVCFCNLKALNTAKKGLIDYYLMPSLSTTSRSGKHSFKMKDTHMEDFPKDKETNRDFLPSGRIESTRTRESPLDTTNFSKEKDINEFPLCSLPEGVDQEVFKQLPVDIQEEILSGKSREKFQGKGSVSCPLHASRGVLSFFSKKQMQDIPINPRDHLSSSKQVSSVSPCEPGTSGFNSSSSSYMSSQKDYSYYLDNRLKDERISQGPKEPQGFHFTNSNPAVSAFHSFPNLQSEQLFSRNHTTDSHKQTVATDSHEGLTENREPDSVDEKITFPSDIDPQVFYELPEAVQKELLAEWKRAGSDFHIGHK

biological target: DNA polymerase iota (Homo sapiens) (UniProt Q9UNA4); assay: qHTS for Inhibitors of Polymerase Iota; details: Pol iota fluorescent replication assay, 10 min; series mostly up to 115 µM
How it was run: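 Pol iota at 10 nM preincubated 15 min with compounds at room temperature; reaction started with fluorescent substrate, 50 nM final. Fluorescence read kinetically at 0 and 10 min; buffer-only wells as negative control.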
Potency means the concentration at half of the fitted maximal effect.

| Structure (SMILES) | Potency |
| --- | --- |
| CSc1ccc(C=NNc2ccc(S(=O)(=O)Nc3ccccc3C(=O)O)cc2[N+](=O)[O-])cc1 | active: 25.1 µM |
| COc1ccc(Nc2c3c(c(C#N)c4nc5ccccc5n24)CCC3)cc1 | inconclusive: 10 µM [inhibitor, partial curve, poor fit] |
| O=C(c1ccccc1)N1CCCCC1CCN1CCCCC1 (configuration not stated) | inactive |
| CC(C)Cn1c(N)c(C(=O)COC(=O)C2Cc3ccccc3CN2S(C)(=O)=O)c(=O)n(C)c1=O (configuration not stated) | active: 44.7 µM |
| O=C(CSc1nc2ccccc2nc1SCC(=O)N1CCCCC1)N1CCCCC1 | inconclusive: 89.1 µM [inhibitor, partial curve, poor fit] |
| COc1cccc(N2CCN(c3ncnc4onc(-c5ccc(Cl)cc5)c34)CC2)c1 | inactive |
| CC(C(=O)N1CCCc2ccccc21)N1CCN(c2ccccn2)CC1 (configuration not stated) | inconclusive: 31.6 µM [inhibitor, full curve, poor fit] |
| CN(C)c1ccc(/C=C/c2ccc3ncccc3c2)cc1 | inconclusive: 35.5 µM [inhibitor, single point] |
| O=C(Nc1cccc(NC(=O)c2sc3ccccc3c2Cl)c1)c1ccco1 | inconclusive: 112 µM [inhibitor, partial curve, poor fit] |
| Cc1cc(C)c(NC(=O)CN2C(=O)CCSc3ccc(S(=O)(=O)N4CCCC4)cc32)c(C)c1 | inactive |
| COCCn1c(C)cc(O)c(C(c2ccc(Cl)cc2)N2CCCCC2)c1=O (configuration not stated) | inactive |
| Cc1cc(C)c2c(=N)c3ccccc3n(CCCCCCCCn3c4ccccc4c(=N)c4c(C)cc(C)nc43)c2n1 | inconclusive: 79.4 µM [inhibitor, partial curve] |
| O=C(N/N=C\c1ccc(OC(=O)c2cccs2)cc1)c1ccc(Cl)cc1 | inconclusive: 79.4 µM [inhibitor, partial curve] |
| COc1nc(Oc2ccc(C(=O)O)cc2)nc(Oc2ccc(C(=O)O)cc2)n1 | inconclusive: 79.4 µM [inhibitor, partial curve, poor fit] |
| CC1CCCCN1CCCNC(=O)Cn1ncc2c3ccccc3n(Cc3ccccc3F)c2c1=O (configuration not stated) | inconclusive: 89.1 µM [inhibitor, single point] |
| O=C1/C(=C\c2ccccc2)SC(=S)N1CCC(=O)N1CCCCC1CCO (configuration not stated) | inactive |
| c1ccc2c(CN3CCSCC3)cccc2c1 | inconclusive: 70.8 µM [inhibitor, single point] |
| COc1ccc(CCNc2ncnc3c2oc2ccccc23)cc1OC | inconclusive: 35.5 µM [inhibitor, partial curve, poor fit] |
| COc1ccc(Cl)cc1NC(=O)C12CCC(C)(C(=O)O1)C2(C)C (configuration not stated) | inconclusive: 79.4 µM [inhibitor, single point] |
| O=C(NNC(=S)Nc1ccccc1)NNC(=S)Nc1ccccc1 | inconclusive: 2.51 µM [inhibitor, full curve, poor fit] |
| O=C(CSc1ccc([N+](=O)[O-])cc1)OCC(=O)N1CCCC1=O | inconclusive: 39.8 µM [inhibitor, single point] |

Quoted at random: two records from the list, in no set order.

| Structure (SMILES) | Potency |
| --- | --- |
| CC(C)Cn1c(N)c(C(=O)COC(=O)C2Cc3ccccc3CN2S(C)(=O)=O)c(=O)n(C)c1=O (configuration not stated) | active: 44.7 µM |
| O=C1/C(=C\c2ccccc2)SC(=S)N1CCC(=O)N1CCCCC1CCO (configuration not stated) | inactive |

The list goes on.

| Structure (SMILES) | Potency |
| --- | --- |
| CN1C(=O)C2(c3ccccc31)c1c(oc3ccccc3c1=O)C(=O)N2CCCO (configuration not stated) | inactive |
| CC1=CC(=O)C=C/C1=C(/c1ccc(O)cc1C)c1ccccc1S(=O)(=O)O | inactive |
| CC(=O)C1=C(O)C(=O)N(c2cc(C(C)(C)C)on2)C1c1ccc(Br)cc1 (configuration not stated) | inconclusive: 39.8 µM [inhibitor, partial curve, poor fit] |
| O=C(/C=C/c1ccccc1Cl)NC1CCCCC1 | inactive |
| CCOC(=O)Cn1c(=O)oc2cc(S(=O)(=O)N(C)c3ccc(OC)cc3)ccc21 | inconclusive: 89.1 µM [inhibitor, partial curve, poor fit] |
| COc1ccc(OC)c(NC(=O)COC(=O)c2cc3c(s2)CCC3)c1 | active: 3.55 µM |
| Cc1cc(Oc2ccccc2)nc(C#N)n1 | inconclusive: 25.1 µM [inhibitor, partial curve, poor fit] |
| CN(C)c1ccc(NC(=O)C(=O)C2C(=O)Nc3ccccc32)cc1 (configuration not stated) | inconclusive: 35.5 µM [inhibitor, partial curve, poor fit] |
| CC[C@H](C)Cc1cn([C@@H](CCCCN)C(=O)NCCCCCCCCCCC(=O)N2CCNCC2)nn1 | inconclusive: 17.8 µM [inhibitor, partial curve, poor fit] |
| Cc1cc(O)c(C(=O)/C=C/c2cccc([N+](=O)[O-])c2)c(=O)o1 | active: 39.8 µM |
| Cc1ccc(S(=O)(=O)N2CCCCC2)cc1NC(=O)CSc1ncccn1 | inconclusive: 89.1 µM [inhibitor, single point] |
| O=C(O)CCc1ccc(-c2ccc(Br)cc2)n1Cc1ccco1 | active: 50.1 µM |
| Cc1cccc(NC(=O)c2c(N)sc3c2CCC(C)C3)c1 (configuration not stated) | inconclusive: 79.4 µM [inhibitor, partial curve, poor fit] |
| CC(=O)c1ccc(S(=O)(=O)N2CCn3cccc3C2C)cc1 (configuration not stated) | inconclusive: 44.7 µM [inhibitor, partial curve, poor fit] |
| O=C(NC(=O)N1CCN(c2ccccc2F)CC1)c1ccccc1 | inconclusive: 100 µM [inhibitor, partial curve, poor fit] |
| O=C(O)/C(=C\c1ccc(-c2ccc(F)cc2)o1)c1ccccc1 | inconclusive: 20 µM [inhibitor, full curve] |
| CCC1(c2ccccc2)NC(=O)N(CC(=O)NCc2ccc(OC)cc2)C1=O (configuration not stated) | inactive |
| CCOc1cc(CNc2ccc3c(c2)OCCO3)cc(Br)c1OCC | inconclusive: 11.2 µM [inhibitor, partial curve, poor fit] |
| CCN(CC)c1ccc(/C=C2\C(=O)N(c3nnc(C)c(=O)[nH]3)N=C2C)cc1 | active: 3.16 µM |
| O=C(COC(=O)CCc1nc2ccccc2c(=O)[nH]1)NC1CCS(=O)(=O)C1 (configuration not stated) | inconclusive: 10 µM [inhibitor, full curve, poor fit] |
| O=C(/C=C/c1ccccc1)CC(O)(c1ccccc1)C(F)(F)F (configuration not stated) | inconclusive: 12.6 µM [inhibitor, full curve] |
